Paper PMC7819943, “Rice protein-binding microarrays: a tool to detect cis-acting elements near promoter regions in rice”
Some of the results follow.

Amino acid sequences for entries named in this document (tags omitted).
UniProt Q0JBA9, entry or part of it: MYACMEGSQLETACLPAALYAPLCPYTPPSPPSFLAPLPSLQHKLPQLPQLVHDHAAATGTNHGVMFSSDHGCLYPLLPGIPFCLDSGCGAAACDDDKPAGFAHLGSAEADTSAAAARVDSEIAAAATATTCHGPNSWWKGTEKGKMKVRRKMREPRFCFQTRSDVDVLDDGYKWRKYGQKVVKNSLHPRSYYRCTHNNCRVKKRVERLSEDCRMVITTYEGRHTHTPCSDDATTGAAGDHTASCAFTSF

Target: OsWRKY34 (Oryza sativa, UniProt Q0JBA9 1-250)
Assay: protein-binding microarray (RPBM); PBS, 2% BSA, 51.3 ng/ul salmon testes DNA, 50 uM zinc acetate, 200 nM TF, 25 C, 1 h; high values mean tight binding
Conditions: protein: recombinant; tags: N-terminal polyhistidine and DsRed monomer fusion (pET32a); label: CyDye5-dUTP incorporated in the synthesized complementary strand; 3' TTTTT single-stranded linker to array surface; dsDNA, one strand shown
Procedure, shortened: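 Transcription factors were each fused at the N-terminus to a polyhistidine tag plus DsRed and expressed in E. coli BL21-CodonPlus before Ni–NTA purification. Binding to a double-stranded custom Agilent array was carried out with 200 nM protein at 25 °C for 1 h in PBS, 2% BSA, salmon testes DNA and 50 µM zinc acetate. The binding signal is per-feature fluorescence intensity, in arbitrary units, on an Axon 4000B scanner.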

Sequence | binding signal
ATCTCATCGATCCTGCTCACCCTTCCTCTCTCTCCTCCTCCGGAGTCACCTAGTGCAG | 9090 fluorescence intensity (a.u.)
TGGCCACGGAGGTGGAGGCGGGGAAGGGCGCCGCGGCGGTCGGAGTCACCTAGTGCAG | 8160 fluorescence intensity (a.u.)
GTTGTATAGGTTGGTTTTTTATGTATGACGCCGTTGACTTCGGAGTCACCTAGTGCAG | 17100 fluorescence intensity (a.u.)
CAATTTGACTAGCTTAGCTAGTTTGACCAATCTTCAGCTTCGGAGTCACCTAGTGCAG | 8770 fluorescence intensity (a.u.)
CCTATTTTTAGTATATATATATATCACATCTCGTACTCTGCGGAGTCACCTAGTGCAG | 8590 fluorescence intensity (a.u.)
GACCGTTTGATTTATTGTCTGAAACCATGTTCCTGAGTCGCGGAGTCACCTAGTGCAG | 10300 fluorescence intensity (a.u.)
ACATGGCGTAAAGGTGACAAACAAAATTCTCTCTATTATCCGGAGTCACCTAGTGCAG | 8620 fluorescence intensity (a.u.)
CCGCGGCGTTTTGTGTGGCCTTCGTCTCGTGTTATCTCTTCGGAGTCACCTAGTGCAG | 10100 fluorescence intensity (a.u.)
CAAGGCATGTTTGTCACGGCTCCAGCTCCAGCTTCACCTACGGAGTCACCTAGTGCAG | 8530 fluorescence intensity (a.u.)
CGTCTACATGTACTTCGAATTTTCCGTTTGAACTGCAACACGGAGTCACCTAGTGCAG | 8120 fluorescence intensity (a.u.)
TAATGTATGACGTCGTTGACTTTTTGTTAAACGTTTGATCCGGAGTCACCTAGTGCAG | 15600 fluorescence intensity (a.u.)
CTCCCACGCCTCACACACTGACACACATATGGGCATAAATCGGAGTCACCTAGTGCAG | 8320 fluorescence intensity (a.u.)
TTGTACTCGCACTAACTGATCCACAGCGCGCACCGGTCTCCGGAGTCACCTAGTGCAG | 9180 fluorescence intensity (a.u.)
CCGCACATGTCAGCCTACTAACCCACCTGCCAAATCGCCCCGGAGTCACCTAGTGCAG | 8590 fluorescence intensity (a.u.)
TCGTCCTCGGTCTGTTGACCTCCTCCCAAAGCCCCTTGTCCGGAGTCACCTAGTGCAG | 8100 fluorescence intensity (a.u.)
CTTTGTTTCTTTCTCATTTCTTCATGTAAATTGTAGTGCTCGGAGTCACCTAGTGCAG | 12700 fluorescence intensity (a.u.)
CATTCGTTCAGTTATTGTTTTTTTTTCTTTGATCGGAGACCGGAGTCACCTAGTGCAG | 8610 fluorescence intensity (a.u.)
GATCACTAGCCTAGTAGCCTAGCTTGCTAACCATCTTTTCCGGAGTCACCTAGTGCAG | 10000 fluorescence intensity (a.u.)
AATGTCGCACACTCACTTGCCACTCTCCCTCGCAATCTTCCGGAGTCACCTAGTGCAG | 9770 fluorescence intensity (a.u.)
TGGACTATAGTGTCATCTTCCAATATTCCTTATTTTTTAACGGAGTCACCTAGTGCAG | 8390 fluorescence intensity (a.u.)
TGTAATGCTGCCGTTAGATCTGATAGTGGTGGGGTGGTATCGGAGTCACCTAGTGCAG | 14600 fluorescence intensity (a.u.)
GACATACAATTCTATTATATTCTTATATTTTTCTTATTTCCGGAGTCACCTAGTGCAG | 9760 fluorescence intensity (a.u.)
TTTTTTTAAAATTTGCATGTTTTTTGGTCGTGTAAAATTTCGGAGTCACCTAGTGCAG | 8290 fluorescence intensity (a.u.)
GTCTCCTCACTGCTACTGTCAGCCTGATCGAAGAAGTAATCGGAGTCACCTAGTGCAG | 9250 fluorescence intensity (a.u.)
TAGGAGGAGAGAGAACGGGAGGAGATGGGGTAGGAAGGGGCGGAGTCACCTAGTGCAG | 8940 fluorescence intensity (a.u.)
GCTTTCTTGAGTTCCATCTTTTTTCGTGCCTCATCTCACACGGAGTCACCTAGTGCAG | 8530 fluorescence intensity (a.u.)
GGCTGCTTCAGGGGCGTGGGAGAGGTTTGGGGTTGGTTCACGGAGTCACCTAGTGCAG | 16000 fluorescence intensity (a.u.)

Retrieved one by one from the entries so far, 4 records:
Sequence | binding signal
CATTCGTTCAGTTATTGTTTTTTTTTCTTTGATCGGAGACCGGAGTCACCTAGTGCAG | 8610 fluorescence intensity (a.u.)
TAGGAGGAGAGAGAACGGGAGGAGATGGGGTAGGAAGGGGCGGAGTCACCTAGTGCAG | 8940 fluorescence intensity (a.u.)
GTCTCCTCACTGCTACTGTCAGCCTGATCGAAGAAGTAATCGGAGTCACCTAGTGCAG | 9250 fluorescence intensity (a.u.)
CCGCGGCGTTTTGTGTGGCCTTCGTCTCGTGTTATCTCTTCGGAGTCACCTAGTGCAG | 10100 fluorescence intensity (a.u.)

(cont.)

Sequence | binding signal
AACACTTCAGAATCCTTGTTTGTGGTGGGGATGGGACTGTCGGAGTCACCTAGTGCAG | 14400 fluorescence intensity (a.u.)
TCAAACTTATCTTATCACTACTACGACCTTCTCATTTAAACGGAGTCACCTAGTGCAG | 8210 fluorescence intensity (a.u.)
CCTGGCTGTCTTCCCCAATTCTCCCTTTTCCTTCCCCAATCGGAGTCACCTAGTGCAG | 10900 fluorescence intensity (a.u.)
ATGCCCCACTGTCCTCCTTTTCGAAGCCAGCTATGCTCCACGGAGTCACCTAGTGCAG | 8720 fluorescence intensity (a.u.)
ATATTTGACGACGTTGATTTTTTTTAAATATGTTTGACCGCGGAGTCACCTAGTGCAG | 9090 fluorescence intensity (a.u.)
TCTCCTGTACGCACATCAGGCCGACATGAATGCATCTCAACGGAGTCACCTAGTGCAG | 8380 fluorescence intensity (a.u.)
TGCCATCTTGACCCACATGTCATTGGGTTCTATATGCCATCGGAGTCACCTAGTGCAG | 8940 fluorescence intensity (a.u.)
ACTACACGGCTTTTATTTTGTCATATATTCTCCTGTATTACGGAGTCACCTAGTGCAG | 10500 fluorescence intensity (a.u.)
GCTTTTCTTGCTTGCTGCAATGGCCGCCTCCTCCGCGCAGCGGAGTCACCTAGTGCAG | 8480 fluorescence intensity (a.u.)
TGTCCACTTTGTAAGCCAGGGATAGTCGTACCGCCAAACACGGAGTCACCTAGTGCAG | 8680 fluorescence intensity (a.u.)
CTTTTTACAATTATTTTGCACATTGATTTTTTTTCTGTTTCGGAGTCACCTAGTGCAG | 11000 fluorescence intensity (a.u.)
CGTTGCTTGCTCTGATATATTTGTTGACTTGCCTCAAAGTCGGAGTCACCTAGTGCAG | 12900 fluorescence intensity (a.u.)
ATCCCTTCCTCACTTAACTGTGTTTGGGATGAGGGTTGGGCGGAGTCACCTAGTGCAG | 9080 fluorescence intensity (a.u.)
CTTGTCATAGTGTGTTATCTAGGTCCCAAATCACCACAGTCGGAGTCACCTAGTGCAG | 9250 fluorescence intensity (a.u.)
TCGGGTCTAACTATCCCCTTTTCGGGTTTTTTTTTTGTTTCGGAGTCACCTAGTGCAG | 8230 fluorescence intensity (a.u.)
CTTGGACCCACTTAATATGTTATATGGCTATTTCTAGTCACGGAGTCACCTAGTGCAG | 8220 fluorescence intensity (a.u.)
AAGTTCGAATCCCTTCCAACTCATGTTTTCTCACTATCTTCGGAGTCACCTAGTGCAG | 8300 fluorescence intensity (a.u.)
CCCGCCTCCGATCAAGCTTCTCCGGCTTCCGATTCTCCCTCGGAGTCACCTAGTGCAG | 10200 fluorescence intensity (a.u.)
AACTAGATTCTATATGTTGGTCTTACTGTTCTAGTTCTAGCGGAGTCACCTAGTGCAG | 9090 fluorescence intensity (a.u.)
AGCGGTTTCTTGGTTGGGGTTTAGTGTCTGCATTGGATATCGGAGTCACCTAGTGCAG | 18200 fluorescence intensity (a.u.)
GACATCGCCGCTCCTCCTATCGCGCTCCTCCCCGCCGGCACGGAGTCACCTAGTGCAG | 9430 fluorescence intensity (a.u.)
ATAGGGGATATGTAAGTGTGTTGCTTGTGCTATATATTGCCGGAGTCACCTAGTGCAG | 8460 fluorescence intensity (a.u.)
GCTCCGCATCTCGCTGTTCCTTTCCTGGTTTTTGTGAAGCCGGAGTCACCTAGTGCAG | 9940 fluorescence intensity (a.u.)
CACGCCCCTTTGGTCCCACCATTTCTTATTACCCTTATATCGGAGTCACCTAGTGCAG | 8060 fluorescence intensity (a.u.)
ACGTTTGGCTTATACTCATTCTTGCAATAATCAATCAACCCGGAGTCACCTAGTGCAG | 9800 fluorescence intensity (a.u.)
TACAGTCAACTGTGTGTTGATACGTACCGCGCCATCTCTCCGGAGTCACCTAGTGCAG | 13000 fluorescence intensity (a.u.)
TCTTTCCCATATCTCTCTCTACCCACGCACTTTTTTCTTTCGGAGTCACCTAGTGCAG | 8830 fluorescence intensity (a.u.)
